Reference: article PMC4541365, “Alpha-ring Independent Assembly of the 20S Proteasome” (Scientific Reports, 2015)
No constants are given. Whether binding was seen depends on the method and setting. For some of these results: Binding seen in cells or lysates may run through a third protein. Some results given as binding are weak or reduced against the parent protein; the word gives no strength. Tags and fused reporters may be left off the sequences shown. One block for each binder: values may come before it.

Key:
[1] = biological target: T1, M. maripaludis α-his subunit K59E (Methanococcus maripaludis S2) (UniProt Q6M0L9); assay: native gel or EMSA; ICAR-purified α-his subunits alone (10 or 20 μg) on nondenaturing 4–15% or 5–10% gradient gels, 55 V, 4 °C; self-assembly into single and double α-rings; both purified
T1 sequence: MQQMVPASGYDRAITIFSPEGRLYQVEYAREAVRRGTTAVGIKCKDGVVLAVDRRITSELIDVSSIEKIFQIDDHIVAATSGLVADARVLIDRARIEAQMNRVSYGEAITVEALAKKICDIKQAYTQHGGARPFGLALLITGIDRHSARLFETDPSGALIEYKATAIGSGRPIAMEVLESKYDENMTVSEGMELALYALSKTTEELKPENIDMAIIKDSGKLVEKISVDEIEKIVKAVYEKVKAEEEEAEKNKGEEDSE

[2] = biological target: T1, M. maripaludis α-his subunit K59E (Methanococcus maripaludis S2); assay: SEC; 780 μg ICAR-purified α-his alone on HiPrep Sephacryl S-300 HR, 25 mM Tris-HCl pH 7, 150 mM NaCl, 0.8 ml/min, 3 ml fractions; fractions on SDS-PAGE and native PAGE; both purified
[3] = biological target: M. maripaludis α-his subunit Q99C (Methanococcus maripaludis S2) (UniProt Q6M0L9); assay: cross-linking; engineered cysteine disulfide, no cross-linking or oxidizing agent added; DR band excised from the native gel, proteins eluted, 12% SDS-PAGE under non-reducing conditions, silver stain; DTT added back to some aliquots; both purified
[4] = biological target: M. maripaludis α-his subunit Q99C (Methanococcus maripaludis S2) (UniProt Q6M0L9); assay: native gel or EMSA; ICAR-purified α-his subunits alone (10 or 20 μg) on nondenaturing 4–15% or 5–10% gradient gels, 55 V, 4 °C; self-assembly into single and double α-rings; both purified
[5] = biological target: T2, M. maripaludis α-his subunit R88D (Methanococcus maripaludis S2) (UniProt Q6M0L9); assay: as above
T2 sequence: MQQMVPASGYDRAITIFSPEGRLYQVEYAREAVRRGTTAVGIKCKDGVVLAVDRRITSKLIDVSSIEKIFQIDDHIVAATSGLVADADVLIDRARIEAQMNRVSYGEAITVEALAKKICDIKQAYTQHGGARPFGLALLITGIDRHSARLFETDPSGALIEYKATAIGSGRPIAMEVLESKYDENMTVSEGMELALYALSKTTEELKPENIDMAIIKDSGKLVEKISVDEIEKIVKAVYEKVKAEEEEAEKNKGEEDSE

[6] = biological target: T2, M. maripaludis α-his subunit R88D (Methanococcus maripaludis S2); assay: SEC; 780 μg ICAR-purified α-his alone on HiPrep Sephacryl S-300 HR, 25 mM Tris-HCl pH 7, 150 mM NaCl, 0.8 ml/min, 3 ml fractions; fractions on SDS-PAGE and native PAGE; both purified
[7] = biological target: T3, Methanococcus maripaludis S2 20S proteasome α subunit, C-terminally hexahistidine-tagged, wild type (Methanococcus maripaludis S2) (UniProt Q6M0L9); assay: pull-down; lysate mixing: total crude lysates of E. coli separately expressing α-his and untagged β mixed, 37 °C, 30 min; purified by ICAR through α-his; eluate on nondenaturing 5–10% gel, substrate overlay and SDS-PAGE
T3 sequence: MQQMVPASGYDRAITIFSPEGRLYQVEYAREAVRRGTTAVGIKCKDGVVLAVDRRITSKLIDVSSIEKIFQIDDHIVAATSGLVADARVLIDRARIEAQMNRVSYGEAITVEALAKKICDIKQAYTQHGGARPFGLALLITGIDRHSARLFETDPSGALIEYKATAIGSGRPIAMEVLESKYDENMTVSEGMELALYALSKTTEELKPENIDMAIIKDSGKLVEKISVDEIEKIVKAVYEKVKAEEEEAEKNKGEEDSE

[8] = biological target: T2, M. maripaludis α-his subunit R88D (Methanococcus maripaludis S2); assay: as above
[9] = biological target: T1, M. maripaludis α-his subunit K59E (Methanococcus maripaludis S2); assay: as above
[10] = biological target: Methanococcus maripaludis S2 20S proteasome β subunit, untagged, wild type (Methanococcus maripaludis S2) (UniProt Q6LZD4); assay: as above
[11] = biological target: T3, Methanococcus maripaludis S2 20S proteasome α subunit, C-terminally hexahistidine-tagged, wild type (Methanococcus maripaludis S2); assay: pull-down; pool 1 (Sephacryl S-300 fractions 17–19, ringed species) of purified α-his, concentrated, mixed with equal volume of E. coli lysate with untagged wild-type β; repurified by ICAR; native PAGE and substrate overlay; only the target purified
[12] = biological target: T2, M. maripaludis α-his subunit R88D (Methanococcus maripaludis S2); assay: as above
[13] = biological target: T1, M. maripaludis α-his subunit K59E (Methanococcus maripaludis S2); assay: as above
[14] = biological target: T3, Methanococcus maripaludis S2 20S proteasome α subunit, C-terminally hexahistidine-tagged, wild type (Methanococcus maripaludis S2); assay: pull-down; α-his coexpressed with untagged β subunits in E. coli; purified by ICAR through α-his; eluate on nondenaturing 5–10% gel, substrate overlay and SDS-PAGE
[15] = biological target: T2, M. maripaludis α-his subunit R88D (Methanococcus maripaludis S2); assay: as above
[16] = biological target: T1, M. maripaludis α-his subunit K59E (Methanococcus maripaludis S2); assay: as above
[17] = biological target: Methanococcus maripaludis S2 20S proteasome β subunit, untagged, wild type (Methanococcus maripaludis S2) (UniProt Q6LZD4); assay: as above
[18] = biological target: T3, Methanococcus maripaludis S2 20S proteasome α subunit, C-terminally hexahistidine-tagged, wild type (Methanococcus maripaludis S2); assay: SEC; lysates with α-his mixed with lysates with untagged full length β; purified by ICAR; purified proteins fractionated by size exclusion chromatography (Sephacryl S-300)
[19] = biological target: T1, M. maripaludis α-his subunit K59E (Methanococcus maripaludis S2); assay: as above
[20] = biological target: T3, Methanococcus maripaludis S2 20S proteasome α subunit, C-terminally hexahistidine-tagged, wild type (Methanococcus maripaludis S2); assay: pull-down; pool 2 (Sephacryl S-300 fractions 25–28, nonR species, mostly free α subunits) of purified α-his, concentrated, mixed with equal volume of E. coli lysate with untagged wild-type β; repurified by ICAR; native PAGE and substrate overlay; only the target purified
[21] = biological target: T2, M. maripaludis α-his subunit R88D (Methanococcus maripaludis S2); assay: as above
[22] = biological target: T1, M. maripaludis α-his subunit K59E (Methanococcus maripaludis S2); assay: as above
[23] = biological target: T3, Methanococcus maripaludis S2 20S proteasome α subunit, C-terminally hexahistidine-tagged, wild type (Methanococcus maripaludis S2); assay: native gel or EMSA; data not shown: putative half-proteasome band of the lysate mixing samples excised from the native gel and its proteins eluted
[24] = biological target: T3, Methanococcus maripaludis S2 20S proteasome α subunit, C-terminally hexahistidine-tagged, wild type (Methanococcus maripaludis S2); assay: native gel or EMSA; time course after mixing separately purified α-his and β-his subunits; nondenaturing gels; both purified

binding [1]: binds weakly | binding [2]: binds weakly
B1: M. maripaludis α-his subunit K59E (protein, UniProt Q6M0L9 1-259)
chain: MQQMVPASGYDRAITIFSPEGRLYQVEYAREAVRRGTTAVGIKCKDGVVLAVDRRITSELIDVSSIEKIFQIDDHIVAATSGLVADARVLIDRARIEAQMNRVSYGEAITVEALAKKICDIKQAYTQHGGARPFGLALLITGIDRHSARLFETDPSGALIEYKATAIGSGRPIAMEVLESKYDENMTVSEGMELALYALSKTTEELKPENIDMAIIKDSGKLVEKISVDEIEKIVKAVYEKVKAEEEEAEKNKGEEDSE

binding [3]: binds | binding [4]: binds
B2: M. maripaludis α-his subunit Q99C (protein, UniProt Q6M0L9 1-259)
chain: MQQMVPASGYDRAITIFSPEGRLYQVEYAREAVRRGTTAVGIKCKDGVVLAVDRRITSKLIDVSSIEKIFQIDDHIVAATSGLVADARVLIDRARIEACMNRVSYGEAITVEALAKKICDIKQAYTQHGGARPFGLALLITGIDRHSARLFETDPSGALIEYKATAIGSGRPIAMEVLESKYDENMTVSEGMELALYALSKTTEELKPENIDMAIIKDSGKLVEKISVDEIEKIVKAVYEKVKAEEEEAEKNKGEEDSE

binding [5]: no binding | binding [6]: no binding
B3: M. maripaludis α-his subunit R88D (protein, UniProt Q6M0L9 1-259)
chain: MQQMVPASGYDRAITIFSPEGRLYQVEYAREAVRRGTTAVGIKCKDGVVLAVDRRITSKLIDVSSIEKIFQIDDHIVAATSGLVADADVLIDRARIEAQMNRVSYGEAITVEALAKKICDIKQAYTQHGGARPFGLALLITGIDRHSARLFETDPSGALIEYKATAIGSGRPIAMEVLESKYDENMTVSEGMELALYALSKTTEELKPENIDMAIIKDSGKLVEKISVDEIEKIVKAVYEKVKAEEEEAEKNKGEEDSE

binding [7]: binds | binding [8]: binds | binding [9]: binds | binding [10]: binds | binding [11]: binds | binding [12]: binds weakly | binding [13]: binds weakly | binding [14]: binds | binding [15]: binds | binding [16]: binds | binding [17]: binds | binding [18]: binds | binding [19]: binds | binding [20]: binds | binding [21]: binds | binding [22]: binds | binding [23]: binds
B4: Methanococcus maripaludis S2 20S proteasome β subunit, untagged, wild type (protein, UniProt Q6LZD4 15-219)
chain: TTTVGLLCNDGVVLATDKRATMGNLIADKEAKKLYKIDDYIAMTIAGSVGDAQSLIRLISAEAKIYKMRTGNNMTPLSCTTLISNVLHGNRHYPLLTQLILGGYDLINGAKLFSLDPVGGINEESSFTATGSGSPTAYGVLESEYKSDIAIEKGLLIAVKALSSAMQRDAYSGNGISLAHINKDGVKLYSDAEIEGFLKKINRKR

binding [8]: binds | binding [9]: binds | binding [15]: binds | binding [16]: binds
B5: M. maripaludis β subunit lacking the propeptide (Δpro), untagged (protein, UniProt Q6LZD4 15-219)
chain: TTTVGLLCNDGVVLATDKRATMGNLIADKEAKKLYKIDDYIAMTIAGSVGDAQSLIRLISAEAKIYKMRTGNNMTPLSCTTLISNVLHGNRHYPLLTQLILGGYDLINGAKLFSLDPVGGINEESSFTATGSGSPTAYGVLESEYKSDIAIEKGLLIAVKALSSAMQRDAYSGNGISLAHINKDGVKLYSDAEIEGFLKKINRKR

binding [24]: binds
B6: M. maripaludis β subunit, hexahistidine-tagged (protein, UniProt Q6LZD4 15-219)
chain: TTTVGLLCNDGVVLATDKRATMGNLIADKEAKKLYKIDDYIAMTIAGSVGDAQSLIRLISAEAKIYKMRTGNNMTPLSCTTLISNVLHGNRHYPLLTQLILGGYDLINGAKLFSLDPVGGINEESSFTATGSGSPTAYGVLESEYKSDIAIEKGLLIAVKALSSAMQRDAYSGNGISLAHINKDGVKLYSDAEIEGFLKKINRKR
